Laboratory results: PubChem BioAssay AID1224828 (NIAID, 2016)
Screen: 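Regulators linking TLR4 signalling to p65 nuclear translocation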 (primary screen). Cell system: mouse RAW264.7 G9 macrophage reporter cells (GFP-p65, Tnf promoter-mCherry). Reagents: siRNA pool against mouse genes, 100 nM. Timing: 2 days siRNA transfection, then 40 min LPS before fixation. Treatment: LPS (Salmonella minnesota R595) at 10 ng/ml. Read-out: 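Microscopy ratio of nuclear to perinuclear-ring GFP-p65 signal, scaled to the plate median; gene score is the average of two replicate robust z-scores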. Direction: p65 translocation robust z-score: higher = more nuclear NF-kappaB p65 after LPS than the plate median; nuclear/cytoplasmic p65 ratio: higher = more nuclear NF-kappaB p65. Active means: 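Called active when z exceeds 3.3 or falls under -1.56 (median of Tlr4 controls), giving activity score of at least 50; no calls for control wells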. Meaning of the calls: active = hit (p65 shift raised or lowered); inactive = no clear change.
Here is one part, drawn at random, of about 17,000 reagents tested. Of all reagents, 762 (4.5%) are marked active. 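Active calls include both raised and lowered p65 entry, mostly lowered; wells with fewer than 50 cells lack a z-score.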 Raw values vary from plate to plate and are shown uncorrected.

gene knocked down	p65 translocation robust z-score	nuclear/cytoplasmic p65 ratio, rep 1	nuclear/cytoplasmic p65 ratio, rep 2	low cell count flag	outcome
Pex13 (GeneID 72129)	-0.77	1.2	1.3	enough cells to score	inactive
Dbf4 (GeneID 27214)	1.26	1.94	1.51	enough cells to score	inactive
Tusc3 (GeneID 80286)	0.02	1.53	1.5	enough cells to score	inactive
Crebl2 (GeneID 232430)	-1.35	1.41	1.41	enough cells to score	inactive
Raver1 (GeneID 71766)	-0.97	1.42	1.3	enough cells to score	inactive
Slc16a8 (GeneID 57274)	0.75	1.54	1.31	enough cells to score	inactive
Ano2 (GeneID 243634)		1.28	1.17	fewer than 50 cells per well; well left out of scoring	inactive
Pof1b (GeneID 69693)	-0.82	1.34	1.06	enough cells to score	inactive
Hemgn (GeneID 93966)	-0.31	1.6	1.51	enough cells to score	inactive
Tchhl1 (GeneID 71325)	-0.81	1.26	1.53	enough cells to score	inactive
Bdp1 (GeneID 544971)	-0.9	1.29	1.28	enough cells to score	inactive
Nphp4 (GeneID 260305)	0.01	1.46	1.3	enough cells to score	inactive
Or5d43 (GeneID 404329)	-3.22	1.22	1.06	enough cells to score	active
Pip4p2 (GeneID 72519)	-0.54	1.31	1.41	enough cells to score	inactive
E330018D03Rik (retired record) (GeneID 320319)	2.08	1.75	1.61	enough cells to score	inactive
Chaf1b (GeneID 110749)	1.1	1.65	1.75	enough cells to score	inactive
Pex11b (GeneID 18632)	0	1.51	1.35	enough cells to score	inactive
Phf19 (GeneID 74016)		1.35	1.43	fewer than 50 cells per well; well left out of scoring	inactive
Erc2 (GeneID 238988)	0.43	1.5	1.44	enough cells to score	inactive
Slfn3 (GeneID 20557)		1.38	1.16	fewer than 50 cells per well; well left out of scoring	inactive
Fam163a (GeneID 329274)		1.19	1.32	fewer than 50 cells per well; well left out of scoring	inactive
Stpg2 (GeneID 381476)	1.98	1.88	2.17	enough cells to score	inactive
Or4d5 (GeneID 258601)	1.83	1.69	1.46	enough cells to score	inactive
Pde6a (GeneID 225600)	-0.31	1.43	1.35	enough cells to score	inactive
Ergic2 (GeneID 67456)	-0.76	1.3	1.31	enough cells to score	inactive

Records listed above called active (1):
gene knocked down	p65 translocation robust z-score	nuclear/cytoplasmic p65 ratio, rep 1	nuclear/cytoplasmic p65 ratio, rep 2	low cell count flag	outcome
Or5d43 (GeneID 404329)	-3.22	1.22	1.06	enough cells to score	active

Further reagents follow.
gene knocked down	p65 translocation robust z-score	nuclear/cytoplasmic p65 ratio, rep 1	nuclear/cytoplasmic p65 ratio, rep 2	low cell count flag	outcome
Fsd1l (GeneID 319636)	0.42	1.47	1.59	enough cells to score	inactive
Cav1 (GeneID 12389)	0.1	2.23	1.39	enough cells to score	inactive
Mllt6 (GeneID 246198)	-0.65	1.28	1.33	enough cells to score	inactive
Nox4 (GeneID 50490)	0.08	1.88	1.41	enough cells to score	inactive
Or8b3b (GeneID 258372)	0.23	1.65	1.12	enough cells to score	inactive
Bcl9l (GeneID 80288)		1.12	1.24	fewer than 50 cells per well; well left out of scoring	inactive
Pbxip1 (GeneID 229534)	-0.69	1.34	1.34	enough cells to score	inactive
Catsperb (GeneID 271036)	-0.87	1.26	1.11	enough cells to score	inactive
Klra3 (GeneID 16634)		1.47	1.06	fewer than 50 cells per well; well left out of scoring	inactive
Gnpat (GeneID 14712)	0.16	1.32	1.41	enough cells to score	inactive
Arl6 (GeneID 56297)		1	1.59	fewer than 50 cells per well; well left out of scoring	inactive
Prkar1a (GeneID 19084)		1.59	1.07	fewer than 50 cells per well; well left out of scoring	inactive
Pigf (GeneID 18701)	-0.92	1.3	1.15	enough cells to score	inactive
Trp53i11 (GeneID 277414)	-0.76	1.51	1.31	enough cells to score	inactive
Or9k2b (GeneID 258671)	1.02	1.63	1.35	enough cells to score	inactive
Ptger1 (GeneID 19216)	-1.32	1.33	1.38	enough cells to score	inactive
F2rl1 (GeneID 14063)	-1.32	1.31	1.42	enough cells to score	inactive
Scly (GeneID 50880)		1.34	1.29	fewer than 50 cells per well; well left out of scoring	inactive
Tsfm (GeneID 66399)		1.35	1.2	fewer than 50 cells per well; well left out of scoring	inactive
Prpf31 (GeneID 68988)	0.14	1.67	1.6	enough cells to score	inactive
Doc2b (GeneID 13447)	1.64	1.69	1.46	enough cells to score	inactive
Vmn1r231 (GeneID 171230)	-2.2	1.09	0.99	enough cells to score	active
Ppp1r3a (GeneID 140491)	-0.46	1.51	1.28	enough cells to score	inactive
Rnf114 (GeneID 81018)		1.42	1.19	fewer than 50 cells per well; well left out of scoring	inactive
Or2b6 (GeneID 218066)	-0.95	1.5	1.45	enough cells to score	inactive
Slc7a14 (GeneID 241919)	-0.14	1.45	1.47	enough cells to score	inactive
Zc3h3 (GeneID 223642)	-0.54	1.36	1.17	enough cells to score	inactive
Fcgr4 (GeneID 246256)	-0.99	1.19	1.23	enough cells to score	inactive
Mrgpra7 (GeneID 404236)	0.53	1.92	1.63	enough cells to score	inactive
Atp5mc1 (GeneID 11951)	-1.43	1.25	1.45	enough cells to score	inactive
Mfap4 (GeneID 76293)	0.02	1.6	1.66	enough cells to score	inactive
Uncx (GeneID 22255)	-1.05	1.2	1.11	enough cells to score	inactive
Thap1 (GeneID 73754)		1.51	1.2	fewer than 50 cells per well; well left out of scoring	inactive
Rnf139 (GeneID 75841)	-0.47	1.48	1.61	enough cells to score	inactive
